Measured values published in PubChem BioAssay AID1671190 (National Center for Advancing Translational Sciences (NCATS), 2021).
Among all 580,000 compounds or so, about 6,100 (1.1%) were called active. Inconclusive results, whose numbers are uncertain, are shown with a selection of clear calls. Calls come from the whole dose curve; as a rule, active = well fitted inhibition curve with a large enough effect; inconclusive = small, poorly fitted or top-dose-only effect, or another doubt; inactive = no such curve, though single readings can be large or run the other way. Where the call is inconclusive, the potency comes from a doubtful curve fit.

The chains behind the UniProt entries cited, without tags or fusion partners.
UniProt P18054, whole entry, looked up: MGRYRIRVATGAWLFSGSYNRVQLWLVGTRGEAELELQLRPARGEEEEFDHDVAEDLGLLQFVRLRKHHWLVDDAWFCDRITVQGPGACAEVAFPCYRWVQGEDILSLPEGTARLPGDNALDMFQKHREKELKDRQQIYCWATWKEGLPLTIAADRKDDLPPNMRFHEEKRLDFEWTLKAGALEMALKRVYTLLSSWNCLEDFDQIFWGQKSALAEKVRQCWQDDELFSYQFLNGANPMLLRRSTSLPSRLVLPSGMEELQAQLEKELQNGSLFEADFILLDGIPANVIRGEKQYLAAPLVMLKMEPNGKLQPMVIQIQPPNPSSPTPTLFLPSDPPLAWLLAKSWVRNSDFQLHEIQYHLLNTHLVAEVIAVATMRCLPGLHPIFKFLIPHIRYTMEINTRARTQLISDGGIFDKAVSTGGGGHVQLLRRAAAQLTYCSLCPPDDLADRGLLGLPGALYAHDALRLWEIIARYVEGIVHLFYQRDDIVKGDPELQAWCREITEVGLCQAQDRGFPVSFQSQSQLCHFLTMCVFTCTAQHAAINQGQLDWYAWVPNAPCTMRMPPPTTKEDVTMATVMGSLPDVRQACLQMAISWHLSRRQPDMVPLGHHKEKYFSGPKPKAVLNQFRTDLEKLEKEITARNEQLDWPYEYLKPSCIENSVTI

Target: Polyunsaturated fatty acid lipoxygenase ALOX12 (Homo sapiens) (UniProt P18054)
Test: Primary qHTS assay for inhibitors of human arachidonate 12S-lipoxygenase (ALOX12): Round 2
Details: purified 12hLO, xylenol orange hydroperoxide absorbance; activity change, negative = inhibition: at 108 µM (top of the series) unless noted
Outline: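 Purified human 12hLO (150 nM final) in 25 mM Hepes, 0.01% Triton X-100, pH 7.0 was preincubated 15 min at room temperature with compound. Then 40 uM arachidonic acid was added, 30 min. Hydroperoxide was read by Fe-XO absorbance ratio 573/405 nm.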
% is set by controls: 0 for no effect and ±100 for the full control effect; potency is the fitted concentration of half-maximal effect.

| Compound | Potency | activity change, negative = inhibition |
| --- | --- | --- |
| C=CCCC(=O)N1C[C@H]2CON(C)[C@H]2C[C@H]1c1cccc(Oc2ccccc2)c1 | inconclusive: 50.1 µM [inhibitor, partial curve] | – |
| CCCn1c(=O)[nH]c(=O)c2c(C(=O)O)cc(C(C)C)nc21 | inconclusive: 31.6 µM [inhibitor, partial curve, poor fit] | – |
| Cn1nc(C(=O)OCC(=O)Nc2ccc(Cl)cn2)c2ccccc2c1=O | – | inactive: -13.2% |
| O=C(NCC1CCCO1)c1csc(N2CCN(c3ccc(Cl)cc3)CC2)n1 (stereo not drawn) | inconclusive: 28.2 µM [inhibitor, full curve, poor fit] | – |
| CCC(CNc1nc(CCN)nc2ccccc12)N1CCN(C)CC1 (stereo not drawn) | inconclusive: 12.6 µM [inhibitor, partial curve, poor fit] | – |
| COCCNC(=O)C(C)(C)n1cc(NC(=O)COCc2ccccc2)cn1 | – | inactive: -4.26% |
| COc1cccc(NC(=O)CN(C)C(=O)c2ccc3[nH]c4c(c3c2)CC(C)CC4)c1 (stereo not drawn) | – | inactive: 0.18% |
| Cc1ccc(C)c(-c2ccc3ccccc3n2)c1 | – | inactive: 4.43% |
| O=C(CCCN1C(=O)/C(=C/c2cccs2)SC1=S)Nc1cccc(O)c1 | – | inactive: -13.5% |
| COc1ccc(C(=O)Nc2cccc3ncccc23)cc1 | inconclusive: 50.1 µM [inhibitor, partial curve, poor fit] | – |
| Cc1ccc(Nc2c(-c3ccc(C)cc3)nc3cnccn23)cc1 | inconclusive: 39.8 µM [inhibitor, single point] | – |
| COc1ccccc1CNC(=O)Cn1ncc2c(=O)oc3ccc(C)cc3c21 | inconclusive: 126 µM [inhibitor, partial curve, poor fit] | – |
| Cc1cc(F)ccc1NC(=O)c1cnc(-c2ccc(F)cc2)nc1-c1ccncc1 | inconclusive: 89.1 µM [inhibitor, single point] | – |
| COc1cc(OC)cc(-n2nc(C(=O)N3CC(C)CC(C)C3)c3ccccc3c2=O)c1 (stereo not drawn) | – | inactive: 0.795% |
| COC(=O)c1ccccc1 | – | inactive: 2.23% |
| C/C(=N\NC(=S)Nc1c(C)cccc1C)c1ccc(OC(F)F)cc1 | active: 35.5 µM | – |
| S=C(NCCCc1ccccc1)NCc1ccccc1 | inconclusive: 50.1 µM [inhibitor, partial curve, poor fit] | – |
| O=C(Cc1cccs1)N/N=C/C=C\c1ccco1 | inconclusive: 44.7 µM [inhibitor, partial curve] | – |
| COc1ccc(N(C(=O)c2cccs2)S(=O)(=O)c2ccc3c(c2)oc(=O)n3C)cc1 | – | inactive: 5.96% |
| CCCN1CCC(=O)N([C@H](CO)Cc2ccccc2)CC1 | – | inactive: -13.6% |
| COc1cc(C(=O)Nc2cc(C)ccc2OCc2cc(=O)n3cc(C)sc3n2)cc(OC)c1OC | inconclusive: 158 µM [inhibitor, partial curve, poor fit] | – |
| CCOC(=O)C1=CCN(S(=O)(=O)c2ccccc2C)C1c1ccc(Br)cc1 (stereo not drawn) | – | inactive: 4.68% |
| CCOC(=O)c1ccc(Nc2c(-c3ccc(O)cc3)nc3nc[nH]n23)cc1 | – | inactive: 38% |
| Cc1ccccc1CS(=O)(=O)Cc1ccc(C(=O)NCCc2ccccc2)o1 | inactive | – |

A few values from the entries so far.
Entry of COCCNC(=O)C(C)(C)n1cc(NC(=O)COCc2ccccc2)cn1 under activity change, negative = inhibition: inactive: -4.26%
Entry of COc1ccc(N(C(=O)c2cccs2)S(=O)(=O)c2ccc3c(c2)oc(=O)n3C)cc1 under activity change, negative = inhibition: inactive: 5.96%
Entry of O=C(CCCN1C(=O)/C(=C/c2cccs2)SC1=S)Nc1cccc(O)c1 under activity change, negative = inhibition: inactive: -13.5%
Entry of Cn1nc(C(=O)OCC(=O)Nc2ccc(Cl)cn2)c2ccccc2c1=O under activity change, negative = inhibition: inactive: -13.2%

Next compounds:

| Compound | Potency | activity change, negative = inhibition |
| --- | --- | --- |
| COC(=O)c1ccc(N2NC(=O)/C(=C/c3cc(OC)c(O)c(OC)c3)C2=O)cc1 | – | inactive: 0.172% |
| CN1CCN(c2nc3c(c(=O)[nH]2)CCN(Cc2cccc(Cl)c2)CC3)CC1 | – | inactive: 24.2% |
| CC1C/C(=N/NC(=S)NC2CCCCC2)CC(C)(C)C1 (stereo not drawn) | inconclusive: 28.2 µM [inhibitor, single point] | – |
| CC1=Nc2ccc(C)cc2/C1=C/c1c(N)n2nc(CC(=O)N3CCOCC3)sc2nc1=O | inconclusive: 12.6 µM [inhibitor, full curve, poor fit] | – |
| COc1cccc(-c2nc3c(c(SCc4ccccc4)n2)Cc2c(CO)cnc(C)c2O3)c1 | inconclusive: 1.41 µM [inhibitor, full curve, poor fit] | – |
| C=C(C)Cn1c(-n2nc(C)cc2C)nc2c1c(=O)n(C)c(=O)n2C | – | inactive: 1.98% |
| Cc1ccc(NC(=O)Nc2ccccc2)cc1[N+](=O)[O-] | inconclusive: 50.1 µM [inhibitor, partial curve, poor fit] | – |
| COC(=O)c1cc(-c2ccccn2)nc2ccccc12 | inconclusive: 15.8 µM [inhibitor, single point] | – |
| COc1cc(C(=O)/C=C/c2cccs2)ccc1OCC(=O)O | – | inactive: 8.78% |
| COc1ccc(-c2oc3c(c2C#CC2(O)CCCCC2)C(OC(C)=O)CCC3)cc1 (stereo not drawn) | inconclusive: 0.355 µM [inhibitor, full curve, poor fit] | – |
| CC(C)CC(c1nnnn1Cc1ccc(F)cc1)N1CCC(C(N)=O)CC1 (stereo not drawn) | inconclusive: 44.7 µM [inhibitor, partial curve, poor fit] | – |
| CN1CCN(c2ncnc3ccc(-c4cccc(C#N)c4)cc23)CC1 | inconclusive: 31.6 µM [inhibitor, partial curve, poor fit] | – |
| COC(=O)c1ccccc1-c1ccc(/C=N/NC(=O)c2cc3ccccc3o2)o1 | – | inactive: 1.2% |
| c1coc(C2Nc3ccccc3C3OCCC23)c1 (stereo not drawn) | – | inactive: 82.8% |
| C/C=C/c1ccc(OCCN2CCc3ccccc3C2)c(OC)c1 | inconclusive: 14.1 µM [inhibitor, full curve] | – |
| CCn1ccc(C(=O)N2CCOc3ccc(CN4CCCCC4)cc3C2)n1 | – | inactive: 18.8% |
| O=C1CSC2(C(=O)Nc3ccccc32)N1c1ccc(Cl)c(Cl)c1 (stereo not drawn) | – | inactive: -31.2% |
| CCCOc1ccccc1C(=O)N1CCC(c2nc3ccccc3s2)CC1 | inconclusive: 112 µM [inhibitor, single point] | – |
| CC(C)(O)Cc1ccccc1 | – | inactive: -1.9% [at 176 µM] |
| CC(=O)c1c(C)[nH]c(C(=O)Nc2nc(-c3ccc(Cl)cc3)cs2)c1C | inconclusive: 63.1 µM [inhibitor, partial curve, poor fit] | – |
| CC(NC(=O)CSc1ccc(C(F)(F)F)cn1)c1ccccc1 (stereo not drawn) | inconclusive: 1.41 µM [inhibitor, partial curve, poor fit] | – |
| O=C(Nc1cccc(Br)c1)Oc1cccc2cccnc12 | inconclusive: 44.7 µM [inhibitor, partial curve, poor fit] | – |
| COC(=O)CN1C(=O)CSc2ccc(S(=O)(=O)Nc3ccc(Cl)cc3C)cc21 | – | inconclusive: -51.7% [inhibitor] |
| N#C/C(=C\c1ccc(N2CCOCC2)o1)c1ccccc1 | active: 20 µM | – |

| Compound | Potency | activity change, negative = inhibition |
| --- | --- | --- |
| CN(C)S(=O)(=O)N1C[C@@H]2CC[C@H](C1)N(Cc1ccccc1C#N)C2 | inconclusive: 12.6 µM [inhibitor, full curve, poor fit] | – |
| COc1ccc(N2C(=O)C(Cl)=C(NCc3ccccc3)C2=O)cc1 | inconclusive: 50.1 µM [inhibitor, partial curve, poor fit] | – |
| COc1ccccc1/C=C/C=N/n1c(-c2ccncc2)n[nH]c1=S | inconclusive: 6.31 µM [inhibitor, full curve] | – |
| c1cc(-c2cc3cc(N4CCOCC4)ccc3o2)cs1 | – | inconclusive: -44.4% [inhibitor] |
| COc1cc(CNC2CCCC2)c(Br)cc1OC1CCCC1 | inconclusive: 56.2 µM [inhibitor, partial curve, poor fit] | – |
| COc1ccc(/C=C/C(=O)C2C(=O)C=C(C)OC2=O)cc1O (stereo not drawn) | inconclusive: 1.58 µM [inhibitor, full curve, poor fit] | – |
| O=C(COc1ccc(Cl)cc1Cl)NCCN1CCCCC1 | inconclusive: 44.7 µM [inhibitor, partial curve, poor fit] | – |
| Cc1ccc2ccc(C(Nc3ccccn3)c3ccccc3)c(O)c2n1 (stereo not drawn) | inconclusive: 12.6 µM [inhibitor, partial curve, poor fit] | inconclusive: -30.4% [inhibitor] |
| O=C(c1ccc(NC(=S)Nc2ccc(Cl)c(Cl)c2)cc1)N1CCCC1 | inconclusive: 50.1 µM [inhibitor, single point] | – |
| S=C(NCCC(c1ccccc1)c1ccccc1)NC1CC1 | inconclusive: 31.6 µM [inhibitor, partial curve, poor fit] | – |
| CC(C)Oc1ccc(C(O)(CC[N+](C)(C)C)C2CCCCC2)cc1 (stereo not drawn) | active: 11.2 µM | – |
| C=CCN(Cc1cccs1)C(=O)COC | – | inactive: -0.707% |
| O=C(CCc1ccc(-c2cccs2)o1)NC[C@@H]1C[C@H](F)CN1 | – | inactive: -13.3% |
| FC(F)(F)c1ccccc1Cc1c(-c2ccc(Cl)cc2)nc2ccc(Br)cn12 | active: 39.8 µM | – |
| O=c1cnc2cnc(Nc3ccccc3)nc2n1Cc1ccc(F)cc1 | inconclusive: 89.1 µM [inhibitor, single point] | – |
| CC1(NC(=O)C2CC2)CN(c2ccc(Oc3ccccc3)cc2)C1 | inconclusive: 20 µM [inhibitor, partial curve, poor fit] | – |
| COc1ccccc1N1CCN(CC(=O)Nc2c(C)n[nH]c2C)CC1 | inconclusive: 15.8 µM [inhibitor, partial curve, poor fit] | – |
| CCOC(=O)C=C(C(=O)OCC)C(=O)OCC | – | inactive: 18.3% |
| CC1CCN(S(=O)(=O)c2ccc(NC(=S)NC(=O)c3ccc(Cl)cc3)cc2)CC1 | active: 14.1 µM | – |
| Cc1ccc(CCNC(=O)C2CCCN(Cc3nc(-c4cccc(Cl)c4)oc3C)C2)cc1 (stereo not drawn) | inconclusive: 35.5 µM [inhibitor, partial curve, poor fit] | – |
| O=C(N/N=C/c1cccc(O)c1)c1ccc(NC(=O)C2CCCCC2)cc1 | – | inactive: 472% |
| CCOc1ccc(S(=O)(=O)Nc2cc(OC)c(OC)cc2C(=O)O)cc1 | inconclusive: 35.5 µM [inhibitor, single point] | – |
| Cc1cc(C)cc(NC(=O)CCCN2C(=O)C(c3ccccc3)Oc3cccnc32)c1 (stereo not drawn) | – | inactive: 1.31% |
| CCN(CC)CCN1C(=O)C(=O)/C(=C(/O)c2ccncc2)C1c1ccccc1 (stereo not drawn) | inconclusive: 35.5 µM [inhibitor, partial curve, poor fit] | – |
